Source: PMC3525516
No constants are given. Whether binding was seen depends on the method and setting. Binding seen in cells or lysates may run through a third protein. A yes stands for co-enrichment or nearness to the bait. Other partners may have been found.

Molecular target: T1, Huntingtin Yeast Two-Hybrid Protein K, recombinant 6HN-HYPK (UniProt Q9NX55)
T1 sequence: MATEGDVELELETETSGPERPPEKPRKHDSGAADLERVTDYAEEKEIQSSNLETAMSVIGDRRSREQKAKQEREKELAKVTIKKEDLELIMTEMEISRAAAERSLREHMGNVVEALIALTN
Assay: affinity purification with mass spectrometry; 200 µg purified 6HN-HYPK bound to a Ni-NTA column as bait; ~800 µg soluble cell lysate (HeLa, Neuro2A, STHdhQ7/HdhQ7 or STHdhQ111/HdhQ111) as prey overnight; washed with 50 mM Tris pH 8.0, 150 mM NaCl, 1.0% NP-40; eluted with 300 mM imidazole; 1D or 2D SDS-PAGE, unique bands or spots by MALDI-TOF/TOF; only the target purified

B1: Zinc finger protein 516 (protein, UniProt Q7TSH3 1-1157)
chain: MDRSREAEMELRRGPSPPRAGRSHEVDGDKAACHSCCICGKSFPFQSSLSQHMRKHTGEKPYKCPYCDHRASQKGNLKIHIRSHRTGTLIQGHEPEAGEAQLGEMRVSEGLDGCASPTKSTSACNRVLNGAVPMDGSKILLRSSRKEVEGAASAQEDTEATVPCSFCKSRFERKKDLELHVHQAHKPFKCRLCSYVTLREESLLSHIERDHITAQVPNGSEACVENGKPELSPGEFPCEVCGQAFSQTWFLKAHMKKHRGSFDHGCHICGRRFKEPWFLKNHMKAHGPKAGSKNRPKSELDPIATINNVVQEEVIVAGLSLYEVCTKCGNLFTNLDSLNAHNAIHRKVEASRIRAPAEEGDSEDPLDTKQFFLQCLNLTPYVAGDVSPGGQAGRRVAELDPVNSYQAWQLATRGKVAEPAEYLKYGTWDEALAGDVAFDKDKREYILVSQEKRKREQDAPATQAPPRKRASVPGDPMLSGHLDPRPTSRPNRRASATTGQGKSSECFECGKIFRTYHQMVLHSRVHRRARRDRDPEGDRAARARCGSLSEGDSASQPSSPGSACAIADSPGLAEEVVDDSGEEAVPEPASGGQPRHCCSSGEVTPTALSNGDQNHKLGNNLPEKDISEPKVGSAMPSVSILENSSRETTKGPEQHRYSLDLKMPAFHPKQEVPSTTDRVDFPASMEITSLQHTLDSQAGHSKEKLSDLHKEHCGVGKRASAPDLVPLDLSMRSSRDEPSGKEACSLQAALVIHPCPYCTHKTYYPEVLWMHKRIWHRVSCSSVAPPWTQPSGHKSIRSNLVFLTRSGRTGPPPALGGKECQPLLLSRFARTQVPGGAPGSKGSSSPLGVTTKAASMPKNKESHSGGPCALWASGPDGYRQTRAGHGQEPPSAAVQGPLAKPKQEGSSRLAPSPGSGSLSRSTTPTPSVITRVGAQPSANSKPVEKLGGPAVGTGFTPPNKHSAPDSLKAKFSPQPQGQPPLKGEGGSPLPPREPSVKAAQELRTLATCAAGSRGEAALQAPPGAPPTLNSAKQEPAAEGQEKRLDILSIFKTYIPKDFATLYQGWGVSSPGPEHRGTSLTGTPRTQAHQGDFVCVECGKSFHQPSQLRAHLRAHTVVFECDGPRDSEVHTASTDAPKQGRDHTTPGTVPAGPLRKGI
Q: With B1 as the binder, how does the binding read?
A: binds

B2: Phosphoglycerate mutase 1 (brain) (protein, UniProt Q9DBJ1 1-254)
chain: MAAYKLVLIRHGESAWNLENRFSGWYDADLSPAGHEEAKRGGQALRDAGYEFDICFTSVQKRAIRTLWTVLDAIDQMWLPVVRTWRLNERHYGGLTGLNKAETAAKHGEAQVKIWRRSYDVPPPPMEPDHPFYSNISKDRRYADLTEDQLPSCESLKDTIARALPFWNEEIVPQIKEGKRVLIAAHGNSLRGIVKHLEGLSEEAIMELNLPTGIPIVYELDKNLKPIKPMQFLGDEETVRKAMEAVAAQGKVKK
Q: With B2 as the binder, how does the binding read?
A: binds

B3: NEDD4 binding protein 1 (protein, UniProt Q6A037 1-893)
chain: MAARVVLDEFTAPAEKAALLERSRGRIEALFGVGLAVLGALGAEEPLPARIWLQLRGAQEAVHSAKEYIKGICEPELEEKECYPKAMHCIFVGAQSLFLKSLIQDTCADLCVLDTGLLGIRGSAEAVVMARSHIQQFVKLFESNENLPSNQRESEIKREFRQFVEAHADSYTMDLLILPTSLKKELLSLTQGEESLFETDDDVITVGDVRPPEYTQSAATGPSSARDEVVVQEDSRNKARTPVSELTKHMDTVFSSSPDVLFVPVNGLSPDEDALSKDRVCHKRRSSDTEERHTKKQFSLENVPEGELLPDGKGSAGNEVIDLSDPASNSTNLSPDGKDTTEEMEYNILVNFFKTMGYSQEIVEKVIREYGPSTEPLLLLEEIEKENKRLQEDRDFPPCTVYPDASQSRNAGVGSTTNELTADSTPKKAQSHTEQSMVERFSQLPFKDSKHCTSNCKVNSFRTVPVGQKQEIWGSKQNSSCTVDLETDGHSASAASASPKDISFVSRGASGHQQRNPAFPENGFQQQTEPLLPNNTKPACEKRSGSCSSPQPKPNYPPLSPPLPLPQLLPSVTEARLGGSSDHIDSSVTGVQRFRDTLKIPYKLELKNEPGRADLKHIVIDGSNVAITHGLKKFFSCRGIAIAVEYFWKLGNRNITVFVPQWRTRRDPNITEQHFLTQLQELGILSLTPARMVFGERIASHDDRFLLHLADKTGGIIVTNDNFREFVTESVSWREIITKRLLQYTFVGDIFMVPDDPLGRNGPRLEEFLRKEAFLRHMQPLLNALPSVGTFDPGFRSPSTQVANNSHQPPPRIQTSSSPWLPQQSHFTALATLPSMQQNPPLPAQRSSAETSELREALLKIFPDSEQKLKIDQILAAHPYMKDLNALSALVLD
Q: Which binding does the source give for B3 here?
A: binds

B4: Serrate RNA effector molecule homolog (Arabidopsis) (protein, UniProt Q99MR6 1-875)
chain: MGDSDDEYDRRRRDKFRRERSDYDRSRERDERRRGDDWNDREWDRGRERRSRGEYRDYDRNRRERFSPPRHELSPPQKRMRRDWDEHSSDPYHSGYDMPYAGGGGGPTYGPPQPWGHPDVHIMQHHVLPIQARLGSIAEIDLGVPPPIMKSFKEFLLSLDDSVDETEAVKRYNDYKLDFRRQQMQDFFLAHKDEEWFRSKYHPDEVGKRRQEARGALQNRLKVFLSLMESGWFDNLLLDIDKADAIVKMLDAAVIKMEGGTENDLRILEQEEEEEQAGKTGEASKKEEARAGPALGEGERKANDKDEKKEDGKQAENDSSNDDKTKKSEGDGDKEEKKEEAEKEAKKSKKRNRKQSGDDSFDEGSVSESESESEGGQAEEEKEEAEEALKEKEKPKEEEKEKPKDAAGLECKPRPLHKTCSLFMRNIAPNISRAEIISLCKRYPGFMRVALSEPQPERRFFRRGWVTFDRSVNIKEICWNLQNIRLRECELSPGVNRDLTRRVRNINGITQHKQIVRNDIKLAAKLIHTLDDRTQLWASEPGTPPVPTSLPSQNPILKNITDYLIEEVSAEEEELLGSSGGPPPEEPPKEGNPAEINVERDEKLIKVLDKLLLYLRIVHSLDYYNTCEYPNEDEMPNRCGIIHVRGPMPPNRISHGEVLEWQKTFEEKLTPLLSVRESLSEEEAQKMGRKDPEQEVEKFVTSNTQELGKDKWLCPLSGKKFKGPEFVRKHIFNKHAEKIEEVKKEVAFFNNFLTDAKRPALPEIKPAQPPGPAQILPPGLTPGLPYPHQTPQGLMPYGQPRPPILGYGAGAVRPAVPTGGPPYPHAPYGAGRGNYDAFRGQGGYPGKPRNRMVRGDPRAIVEYRDLDAPDDVDFF
Q: How did the binding turn out when B4 was run?
A: binds

B5: Protein phosphatase 6, regulatory subunit 2 (protein, UniProt Q8R3Q2 1-923)
chain: MFWKFDLNTTSHVDKLLDKEHVTLQELMDEDDILQECKAQNQKLLDFLCRQQCMEELVNLITQDPPQDMEEKVRFKYPNTACELLTCDVPQISDRLGEDESLLNLLYDFLDQEPPLNPLLASFFSKTIGNLIARKTEQVIMFLKKKEKFISQLLKHIGTSALMDLLLRLVSCVEPVGLRQEVLHWLNEEKIIQRLVALIHPHQDEDRQSNASQALCDIIRLGRDQGSQLQETVEPDPLLITLESQDCVEQLLKNMFDGDQTESCLVSGMQVLLALLEPRRVGTEGLVDSFSQGLERSHSVSSSILRGIEPWLKNFHQLLLNPPKKKAILTTIGVLEEPLGNARLHGARLMAALLHTNTPGINQELCRLNTMDLLLDLFFKYTWNNFLHLQVELCIAAILSHAAREEQAEASGSDGKVEPLQGSGDGNGKLETTPSITSPPENTMVTHLFQKCCLVQRILEAWEANDHTQAAGGMRRGNMGHLTRIANAVVQNLEQGPVQAHISEVIRGLPADCRGRWESFVEETLMETNRRNTVDLAFSEYQIQQMTANFVDQFGFNDEEFADQDDNINAPFDRIAEINFNIEADEDSPSAALFEACCSDRIQPFDDDEEEDIWEDDETRCAARVMARARFGAPHVSDNYSKNALEHGGQDRKTGSAVARNVPGLAAPSSPTQKEGPRSESDSAGTTWTAVFDEPVNPLSATPGAARDVGSSAWAAGPSVVEEKGWAKFTDFQPFCCSETGPRCSSPVDMDHSNAEGGQSPGPEKTFGPTSPCAWNVCVTRKAPLVASDSSSSGGSDSEDDEKAAGAVEAVCTGHTGKVSPPPRTAEAAVGRAECPDSTVLAPACPAPSEVTISPAVATIAPSKAGSPTATIVVSSSVAAAVPPGPIVAVTTAAPAIVATLGTMTKDRKADALPEGAALNGPV
Q: With B5 as the binder, how does the binding read?
A: binds

B6: Lamin B2 (HeLa) (protein, UniProt Q03252 1-620)
chain: MSPPSPGRRREQRRPRAAATMATPLPGRAGGPATPLSPTRLSRLQEKEELRELNDRLAHYIDRVRALELENDRLLLKISEKEEVTTREVSGIKALYESELADARRVLDETARERARLQIEIGKLRAELDEVNKSAKKREGELTVAQGRVKDLESLFHRSEVELAAALSDKRGLESDVAELRAQLAKAEDGHAVAKKQLEKETLMRVDLENRCQSLQEELDFRKSVFEEEVRETRRRHERRLVEVDSSRQQEYDFKMAQALEELRSQHDEQVRLYKLELEQTYQAKLDSAKLSSDQNDKAASAAREELKEARMRLESLSYQLSGLQKQASAAEDRIRELEEAMAGERDKFRKMLDAKEQEMTEMRDVMQQQLAEYQELLDVKLALDMEINAYRKLLEGEEERLKLSPSPSSRVTVSRATSSSSGSLSATGRLGRSKRKRLEVEEPLGSGPSVLGTGTGGSGGFHLAQQASASGSVSIEEIDLEGKFVQLKNNSDKDQSLGNWRIKRQVLEGEEIAYKFTPKYILRAGQMVTVWAAGAGVAHSPPSTLVWKGQSSWGTGESFRTVLVNADGEEVAMRTVKKSSVMRENENGEEEEEEAEFGEEDLFHQQGDPRTTSRGCYVM
Q: With B6 as the binder, how does the binding read?
A: binds

B7: Serologically defined colon cancer antigen 1 (protein, UniProt O60524 1-1076)
chain: MKSRFSTIDLRAVLAELNASLLGMRVNNVYDVDNKTYLIRLQKPDFKATLLLESGIRIHTTEFEWPKNMMPSSFAMKCRKHLKSRRLVSAKQLGVDRIVDFQFGSDEAAYHLIIELYDRGNIVLTDYEYVILNILRFRTDEADDVKFAVRERYPLDHARAAEPLLTLERLTEIVASAPKGELLKRVLNPLLPYGPALIEHCLLENGFSGNVKVDEKLETKDIEKVLVSLQKAEDYMKTTSNFSGKGYIIQKREIKPSLEADKPVEDILTYEEFHPFLFSQHSQCPYIEFESFDKAVDEFYSKIEGQKIDLKALQQEKQALKKLDNVRKDHENRLEALQQAQEIDKLKGELIEMNLQIVDRAIQVVRSALANQIDWTEIGLIVKEAQAQGDPVASAIKELKLQTNHVTMLLRNPYLLSEEEDDDVDGDVNVEKNETEPPKGKKKKQKNKQLQKPQKNKPLLVDVDLSLSAYANAKKYYDHKRYAAKKTQKTVEAAEKAFKSAEKKTKQTLKEVQTVTSIQKARKVYWFEKFLWFISSENYLIIGGRDQQQNEIIVKRYLTPGDIYVHADLHGATSCVIKNPTGEPIPPRTLTEAGTMALCYSAAWDARVITSAWWVYHHQVSKTAPTGEYLTTGSFMIRGKKNFLPPSYLMMGFSFLFKVDESCVWRHQGERKVRVQDEDMETLASCTSELISEEMEQLDGGDTSSDEDKEEHETPVEVELMTQVDQEDITLQSGRDELNEELIQEESSEDEGEYEEVRKDQDSVGEMKDEGEETLNYPDTTIDLSHLQPQRSIQKLASKEESSNSSDSKSQSRRHLSAKERREMKKKKLPSDSGDLEALEGKDKEKESTVHIETHQNTSKNVAAVQPMKRGQKSKMKKMKEKYKDQDEEDRELIMKLLGSAGSNKEEKGKKGKKGKTKDEPVKKQPQKPRGGQRVSDNIKKETPFLEVITHELQDFAVDDPHDDKEEQDLDQQGNEENLFDSLTGQPHPEDVLLFAIPICAPYTTMTNYKYKVKLTPGVQKKGKAAKTALNSFMHSKEATAREKDLFRSVKDTDLSRNIPGKVKVSAPNLLNVKRK
Q: Which binding does the source give for B7 here?
A: binds
